Data taken from publication doi:10.1101/2022.12.18.520954.

Molecular target: endogenous LvSTING in shrimp hemocytes (Litopenaeus vannamei (endogenous in shrimp hemocytes))
Assay: co-IP

“endogenous LvIRF in shrimp hemocytes (from UniProt A0A0R6M5F1)” was tested, and the binding was “binds”.

Results are given in words; binding and its absence hold for the method and conditions named. In cells and extracts the contact can be indirect. A result given as binding can be weak or reduced; the word gives no strength.
